Reference: PubChem BioAssay AID662 (National Center for Advancing Translational Sciences (NCATS), 2007)
Some of the results follow. These are further read-outs of the screen, such as a control signal, another cell line or another target. No call is given for them. The list favours compounds with an active or inconclusive main result. Potencies come from curve fits of mixed quality, noted in brackets.

test: Cell signaling CRE-BLA (Fsk stim); conditions: CHO CRE-bla reporter (cAMP response element driving beta-lactamase), forskolin EC10, beta-lactamase ratio; measured here: 460 nm blue channel
In short: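 Beta-lactamase reporter under a cAMP responsive element in CHO cells; compounds tested in titration series against EC10 NKH 477, 3 h at 37 °C. Read-out: CCF4 FRET ratio 460nm/530nm (excitation 405nm) giving %Activity, fitted to AC50.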

| Structure (SMILES) | AC50 |
| --- | --- |
| CC1=CC(=O)C2=C(C)CC[C@@H]3[C@H](OC(=O)[C@H]3C)[C@H]12 | 0.0794 µM [rising, full curve, poor fit] |
| COC(=O)C(CC(=O)c1ccc(Br)cc1)n1ccnc1 (stereo not drawn) | 15.8 µM [falling, partial curve] |
| Fc1ccc(-c2nc3nc4ccccc4nc3n2Cc2ccco2)cc1 | 20 µM [rising, single point] |
| Cc1noc(C)c1COc1cccc(C(=O)N2CCN(C/C=C/c3ccccc3)CC2)c1 | 0.00316 µM [falling, full curve, poor fit] |
| CN(C)c1ncc2nc(-c3ccccc3)c(=O)n(C)c2n1 | 7.94 µM [rising, partial curve] |
| COc1ccc(C)cc1N(CC(N)=O)S(=O)(=O)c1ccc(C)cc1 | 0.0158 µM [rising, single point] |
| CCCOC(=O)Nc1ccc(S(=O)(=O)Nn2cnnc2)cc1 | 0.251 µM [rising, partial curve] |
| COC(=O)c1sc(NC(=O)c2cc3c(s2)CCCC3)nc1C | 20 µM [falling, single point] |
| COC(=O)c1cn(-c2ccccc2)nc1C(=O)OC | 10 µM [rising, partial curve] |
| CN1C(=O)C(O)(C2COC(C)(C)CC2=O)c2ccccc21 (stereo not drawn) | 0.00316 µM [falling, full curve, poor fit] |
| CN1CCN(c2ncc3nc(-c4cccc(C#N)c4)c(=O)n(CCC#N)c3n2)CC1 | 10 µM [rising, partial curve] |
| COc1ccc(-c2nc(CSCC(=O)N3CCN(C(=O)c4ccco4)CC3)c(C)o2)cc1OC | 12.6 µM [rising, partial curve] |
| CN(Cc1ccccc1)C(=O)CSc1nc2ccccc2c(=O)n1Cc1ccco1 | 10 µM [rising, single point] |
| CCOC(=O)C1CCN(C(=O)CN2C(=O)C(CC)Oc3ccccc32)CC1 (stereo not drawn) | 0.398 µM [falling, single point] |
| Cc1cc(N2C(=O)C3C4c5ccccc5C(c5ccccc54)C3C2=O)no1 (stereo not drawn) | 0.398 µM [rising, partial curve, poor fit] |
| O=C(CSc1nc(-c2ccco2)cc(C(F)(F)F)n1)Nc1cccnc1 | 12.6 µM [rising, single point] |
| CC(=O)Oc1ccc2c(C)c(CC(C)O)c(=O)oc2c1 (stereo not drawn) | 10 µM [rising, partial curve] |
| COc1ccccc1CNc1ncncc1-c1ccc(N(C)C)cc1 | 2 µM [falling, partial curve] |
| COC(=O)c1ccc(CSc2nccn2C)cc1 | 0.00398 µM [falling, full curve, poor fit] |
| c1ccc(-c2nnc(SCc3cn4ccsc4n3)o2)cc1 | 10 µM [rising, single point] |
| O=C(CSc1nnc(-c2ccc(S(=O)(=O)N3CCOCC3)cc2)o1)c1ccccc1F | 25.1 µM [falling, single point] |
| O=C(CCC1N=C2c3ccccc3N=C(SCc3cccc(Cl)c3)N2C1=O)NCc1ccco1 (stereo not drawn) | 0.794 µM [rising, full curve] |
| COc1ccc(C(CNC(=O)c2ccc3c(c2)C(=O)N(CCC(C)C)C3=O)N2CCOCC2)cc1 (stereo not drawn) | 0.2 µM [falling, partial curve] |

| Structure (SMILES) | AC50 |
| --- | --- |
| COc1cc(C(=O)Nc2nc3ccc(S(=O)(=O)N4CCOCC4)cc3s2)cc(OC)c1OC | 5.01 µM [rising, partial curve] |
| CN1CCN(CC(=O)N2CCn3c4c(c5cc(C6CCCCC6)ccc53)CCCC42)CC1 (stereo not drawn) | 12.6 µM [rising, single point] |
| Cc1[nH]c(=O)[nH]c(=O)c1S(=O)(=O)N(C)Cc1ccccc1 | 5.01 µM [rising, single point] |
| CCNC(=O)CC1SC(=Nc2cccc(Cl)c2C)N(C)C1=O (stereo not drawn) | 3.98 µM [falling, partial curve] |
| O=c1c(Cc2ccccc2)c(O)nc2n1CCS2 | 15.8 µM [falling, partial curve] |
| COc1ccccc1Nc1nc(N)nc(CSc2ncccn2)n1 | 12.6 µM [rising, partial curve] |
| CCn1c(SCc2ccc(OC)cc2)nnc1-c1ccncc1 | 25.1 µM [falling, single point] |
| COc1ccc(/C=N/n2cnnc2SCc2ccccc2)cc1 | 12.6 µM [rising, single point] |
| COc1ccc(CNc2ccnc(-c3c(C)noc3C)n2)c(OC)c1 | 12.6 µM [rising, single point] |
| O=C(CSc1ncccn1)NC(=O)NCc1ccccc1 | 3.16 µM [falling, partial curve] |
| O=C(Nc1nc(-c2ccc3c(c2)OCCO3)cs1)c1ccc(S(=O)(=O)N2CCCCC2)cc1 | 20 µM [falling, single point] |
| COc1ccc(CCNC(=O)c2cc(-c3ccccc3)on2)cc1OC | 0.631 µM [rising, full curve] |
| COc1cccc(OC)c1OCCNC[C@@H]1COc2ccccc2O1 | 10 µM [falling, partial curve, poor fit] |
| COc1ccc(Oc2ncc3nc(-c4ccccc4)c(=O)n(C4CC4)c3n2)cc1 | 15.8 µM [rising, partial curve] |
| CC1=C(C(N)=O)C(c2cccc(OCc3ccccc3)c2)n2nnnc2N1 (stereo not drawn) | 25.1 µM [rising, single point] |
| O=S(=O)(c1ccc2c(c1)C(=NO)c1cc(S(=O)(=O)N3CCCCC3)ccc1-2)N1CCCCC1 | 3.98 µM [falling, full curve] |
| COCCn1c(=O)c(-c2ccc(OC)cc2)nc2cnc(Oc3ccc(OC)cc3)nc21 | 5.01 µM [rising, partial curve] |
| N#Cc1nc(N2CCCCC2)nc(N2CCOCC2)n1 | 2.51 µM [rising, full curve, poor fit] |
| COc1cccc(-c2csc(N3CCN(C(=O)C4CCCCC4)CC3)n2)c1 | 20 µM [falling, single point] |
| FC(F)(F)c1ccccc1-c1ccc2ncnc(NC3CC3)c2c1 | 5.01 µM [rising, full curve] |
| c1ccc(-c2nc(NCc3ccco3)c3ccccc3n2)nc1 | 12.6 µM [rising, single point] |
| CC(C)c1ccc(NC(=O)c2cccnc2)cc1 | 1 µM [falling, partial curve] |
| O=C(CSc1n[nH]c(-c2ccccc2)n1)NC(=O)NCc1ccco1 | 5.01 µM [falling, single point] |

Five neighbouring compounds already listed:

| Structure (SMILES) | AC50 |
| --- | --- |
| O=S(=O)(c1ccc2c(c1)C(=NO)c1cc(S(=O)(=O)N3CCCCC3)ccc1-2)N1CCCCC1 | 3.98 µM [falling, full curve] |
| COCCn1c(=O)c(-c2ccc(OC)cc2)nc2cnc(Oc3ccc(OC)cc3)nc21 | 5.01 µM [rising, partial curve] |
| N#Cc1nc(N2CCCCC2)nc(N2CCOCC2)n1 | 2.51 µM [rising, full curve, poor fit] |
| COc1cccc(-c2csc(N3CCN(C(=O)C4CCCCC4)CC3)n2)c1 | 20 µM [falling, single point] |
| FC(F)(F)c1ccccc1-c1ccc2ncnc(NC3CC3)c2c1 | 5.01 µM [rising, full curve] |

Next records:

| Structure (SMILES) | AC50 |
| --- | --- |
| O=c1c(-c2ccc(Cl)cc2)nc2cncnc2n1Cc1ccccc1 | 12.6 µM [rising, partial curve] |
| Cc1nn(CCO)c(C)c1Oc1ccccc1O | 0.00316 µM [falling, full curve, poor fit] |
| COCCn1nnnc1CN(Cc1cc2cc(OC)c(OC)cc2[nH]c1=O)C1CCCC1 | 12.6 µM [rising, single point] |
| CC(C)CCOCC(=O)Nc1cccc(C(=O)O)c1 | 3.98 µM [falling, partial curve] |
| CCOc1ccccc1NC(=O)c1ccccc1-c1nc(-c2ccccc2)no1 | 3.98 µM [falling, partial curve] |
| O=c1[nH]c(SCc2cc(=O)n3ccccc3n2)nc2c1CCC2 | 10 µM [rising, partial curve] |
| COC(=O)c1ccc(S(=O)(=O)NCCSc2nnc3c4ccccc4n(C)c3n2)cc1 | 3.98 µM [rising, single point] |
| O=c1c(-c2cccs2)nc2cnc(N3CCNCC3)nc2n1-c1ccccc1 | 3.16 µM [rising, full curve] |
| CCOc1cc(C2NC(=O)NC(C)=C2C(=O)OC(C)CC)cc(Br)c1O (stereo not drawn) | 10 µM [rising, partial curve] |
| COCCn1c(=S)[nH]c2cc(C(=O)N3CCN(c4ccc(F)cc4)CC3)ccc2c1=O | 12.6 µM [rising, single point] |
| COc1ccccc1-c1ccc2ncnc(NCc3cccnc3)c2c1 | 3.16 µM [rising, full curve, poor fit] |
| COC(=O)c1ccc(NC(=O)CNC(=O)C2CCCCC2)cc1 | 1 µM [rising, single point] |
| CCSc1nnc2c(n1)OC=Nc1ccc(Br)cc1-2 | 15.8 µM [falling, partial curve] |
| COc1cccc(Cn2c(=O)c(-c3ccccc3)nc3cnc(OC)nc32)c1 | 10 µM [rising, partial curve] |
| CCCCCOC(=O)C1=C(C)NC(=O)NC1c1ccccc1OCC (stereo not drawn) | 12.6 µM [rising, single point] |
| CCOC(=O)c1ccc(-n2c(=S)sc3c(=O)[nH]c(C)nc32)cc1 | 12.6 µM [falling, partial curve] |
| CCCn1c(SCCc2ccccc2)nc2c1c(=O)[nH]c(=O)n2C | 10 µM [rising, partial curve] |
| Cc1cc(NC(=O)CN2CC3CC(C2)c2cccc(=O)n2C3)nc2c1c(=O)oc1ccccc12 (stereo not drawn) | 12.6 µM [rising, single point] |
| Cc1cc(C(=O)O)ccc1[C@H](N)C(=O)O | 1.26 µM [falling, full curve] |
| Cc1ccc(S(=O)(=O)c2c(C)nn(C(C)(C)C)c2OC(=O)c2ccc(Br)o2)cc1 | 3.98 µM [falling, full curve] |
| COc1ccc(CCNC(=O)c2ccn[nH]2)cc1OC | 10 µM [rising, partial curve] |
| CC1CC(C)CN(C(=O)CSc2nnc(-c3ccc(Cl)s3)o2)C1 (stereo not drawn) | 10 µM [rising, single point] |
